Reference: PubChem BioAssay AID686943 (Drosophila RNAi Screening Center, 2013)

- Test: 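Fly genes whose loss alters ERK activation after insulin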 (primary screen)
- Cell system: Drosophila S2R+ haemocyte-like cells expressing YFP-tagged ERK (Rolled)
- Knock-down reagent: long dsRNA against Drosophila genes
- Treatment: insulin stimulation versus unstimulated cells; dose and duration not given
- Measurement: 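Antibody staining for doubly phosphorylated ERK divided by ERK-YFP signal, as plate z-scores, in insulin-treated and untreated cells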
- Reading the numbers: replicate 1, z-score of dpERK with insulin and replicate 2, z-score of dpERK with insulin: higher = more active ERK per ERK-YFP after insulin
The screen tested about 23,000 reagents; below is an unselected part of those with a known target gene and a result. 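Extra replicates exist only for a retested subset of genes; insulin dose and duration not given; both raised and lowered dpERK matter.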 Names joined by + are all predicted targets of the reagent. Not all columns of the deposit are shown. Not given: the amount of reagent, the time to read-out.

What did the screen give for CG15021 [DRSC08475]?
replicate 1, z-score of dpERK with insulin: 1.36; replicate 2, z-score of dpERK with insulin: 0.56

With Cog4 [DRSC03057], what was measured?
replicate 1, z-score of dpERK with insulin: 1.25; replicate 2, z-score of dpERK with insulin: 0.97

For Vsx2 [DRSC17397], what was measured?
replicate 1, z-score of dpERK with insulin: -0.8; replicate 2, z-score of dpERK with insulin: -2.19

Which result is listed for Vsx2 [DRSC18087]?
replicate 1, z-score of dpERK with insulin: -1.38; replicate 2, z-score of dpERK with insulin: -2.19

For Vsx2 [DRSC18088], what was measured?
replicate 1, z-score of dpERK with insulin: 0.12; replicate 2, z-score of dpERK with insulin: 0.21

How did the screen score Vsx2 [DRSC18089]?
replicate 1, z-score of dpERK with insulin: -4.02; replicate 2, z-score of dpERK with insulin: 0.84

For CG40341 (retired record) [DRSC01767], how do the results read?
replicate 1, z-score of dpERK with insulin: 0.52; replicate 2, z-score of dpERK with insulin: 0.85

How did the screen score CG40341 (retired record) [DRSC03750]?
replicate 1, z-score of dpERK with insulin: 1.47; replicate 2, z-score of dpERK with insulin: 0.37

What is on record for CG16935 [DRSC06638]?
replicate 1, z-score of dpERK with insulin: 1.12; replicate 2, z-score of dpERK with insulin: -0.21

For EndoG [DRSC07292], what was measured?
replicate 1, z-score of dpERK with insulin: 0.38; replicate 2, z-score of dpERK with insulin: 0.41

What is on record for EndoG [DRSC22746]?
replicate 1, z-score of dpERK with insulin: -0.36; replicate 2, z-score of dpERK with insulin: 0.19

What did the screen give for CG31515 [DRSC13610]?
replicate 1, z-score of dpERK with insulin: 2.68; replicate 2, z-score of dpERK with insulin: 4.24

For CG15263 [DRSC01974], how do the results read?
replicate 1, z-score of dpERK with insulin: 0.46; replicate 2, z-score of dpERK with insulin: 0.33

With CG34338 [DRSC17535], what was measured?
replicate 1, z-score of dpERK with insulin: -0.16; replicate 2, z-score of dpERK with insulin: 0.27

With Tpc2 [DRSC04322], what does the deposit list?
replicate 1, z-score of dpERK with insulin: -0.33; replicate 2, z-score of dpERK with insulin: -0.26

What did the screen give for CR32011 + CR32010 + PlexB + 1 more [DRSC21664]?
replicate 1, z-score of dpERK with insulin: 0.34; replicate 2, z-score of dpERK with insulin: 0.82

What did the screen give for Tis11 [DRSC20293]?
replicate 1, z-score of dpERK with insulin: -2.61; replicate 2, z-score of dpERK with insulin: -4.16

For CG3164 [DRSC00572], how do the results read?
replicate 1, z-score of dpERK with insulin: 0.06; replicate 2, z-score of dpERK with insulin: 0.52

Which result is listed for CG30060 [DRSC05419]?
replicate 1, z-score of dpERK with insulin: -0.74; replicate 2, z-score of dpERK with insulin: 0.17

With CG17919 [DRSC12571], how do the results read?
replicate 1, z-score of dpERK with insulin: -0.43; replicate 2, z-score of dpERK with insulin: -0.05

For Ran-like [DRSC10918], how do the results read?
replicate 1, z-score of dpERK with insulin: 0.36; replicate 2, z-score of dpERK with insulin: -0.53

What did the screen give for CG43182 [DRSC17668]?
replicate 1, z-score of dpERK with insulin: -0.71; replicate 2, z-score of dpERK with insulin: -0.12

What is on record for MCU [DRSC10339]?
replicate 1, z-score of dpERK with insulin: 0.24; replicate 2, z-score of dpERK with insulin: -0.12

For U2A [DRSC06445], what does the deposit list?
replicate 1, z-score of dpERK with insulin: 0.88; replicate 2, z-score of dpERK with insulin: 0.94

For CG30325 [DRSC05685], what does the deposit list?
replicate 1, z-score of dpERK with insulin: 1.09; replicate 2, z-score of dpERK with insulin: 1.39

With CG11378 [DRSC18627], what was measured?
replicate 1, z-score of dpERK with insulin: -0.6; replicate 2, z-score of dpERK with insulin: 0.3

What is on record for CG7368 [DRSC10826]?
replicate 1, z-score of dpERK with insulin: -0.88; replicate 2, z-score of dpERK with insulin: 0.89

What did the screen give for CG7368 [DRSC22821]?
replicate 1, z-score of dpERK with insulin: 0.54; replicate 2, z-score of dpERK with insulin: 0.51

For CG13319 [DRSC06356], what was measured?
replicate 1, z-score of dpERK with insulin: -0.22; replicate 2, z-score of dpERK with insulin: -0.36

With Trm1 [DRSC02951], what was measured?
replicate 1, z-score of dpERK with insulin: -0.48; replicate 2, z-score of dpERK with insulin: -0.53

What is on record for Uro [DRSC03469]?
replicate 1, z-score of dpERK with insulin: 0.82; replicate 2, z-score of dpERK with insulin: 1.09

Which result is listed for hebe [DRSC05192]?
replicate 1, z-score of dpERK with insulin: 0.54; replicate 2, z-score of dpERK with insulin: 0.84

Which result is listed for hebe [DRSC06605]?
replicate 1, z-score of dpERK with insulin: 0.15; replicate 2, z-score of dpERK with insulin: 0.64

For hebe [DRSC21614], how do the results read?
replicate 1, z-score of dpERK with insulin: 1.28; replicate 2, z-score of dpERK with insulin: 0.75

For Met [DRSC20284], what was measured?
replicate 1, z-score of dpERK with insulin: 0.19; replicate 2, z-score of dpERK with insulin: 0.13

With hmw [DRSC16277], what does the deposit list?
replicate 1, z-score of dpERK with insulin: 0.12; replicate 2, z-score of dpERK with insulin: 1.1

With CG16959 [DRSC10230], what does the deposit list?
replicate 1, z-score of dpERK with insulin: -0.2; replicate 2, z-score of dpERK with insulin: 0.41

What did the screen give for Ir7c [DRSC18007]?
replicate 1, z-score of dpERK with insulin: -0.42; replicate 2, z-score of dpERK with insulin: -0.44

How did the screen score CG15905 [DRSC06591]?
replicate 1, z-score of dpERK with insulin: 0.34; replicate 2, z-score of dpERK with insulin: -0.26

What did the screen give for CG11018 [DRSC06024]?
replicate 1, z-score of dpERK with insulin: 0.34; replicate 2, z-score of dpERK with insulin: 0.22

6 entries from above, sorted by “replicate 1, z-score of dpERK with insulin”, highest first.
CG31515 [DRSC13610] | replicate 1, z-score of dpERK with insulin = 2.68; replicate 2, z-score of dpERK with insulin = 4.24
CG15263 [DRSC01974] | replicate 1, z-score of dpERK with insulin = 0.46; replicate 2, z-score of dpERK with insulin = 0.33
CR32011 + CR32010 + PlexB + 1 more [DRSC21664] | replicate 1, z-score of dpERK with insulin = 0.34; replicate 2, z-score of dpERK with insulin = 0.82
CG34338 [DRSC17535] | replicate 1, z-score of dpERK with insulin = -0.16; replicate 2, z-score of dpERK with insulin = 0.27
Tpc2 [DRSC04322] | replicate 1, z-score of dpERK with insulin = -0.33; replicate 2, z-score of dpERK with insulin = -0.26
Tis11 [DRSC20293] | replicate 1, z-score of dpERK with insulin = -2.61; replicate 2, z-score of dpERK with insulin = -4.16
